From publication PMC4916433
Results are given in words; binding and its absence hold for the method and conditions named. Binding seen in cells or lysates may run through a third protein. Some binding calls cover weakened binding; strength is not graded here.

Amino acid sequences for entries named in this document (tags omitted). Residues count along the entry.
UniProt O75096, residues 21-1905: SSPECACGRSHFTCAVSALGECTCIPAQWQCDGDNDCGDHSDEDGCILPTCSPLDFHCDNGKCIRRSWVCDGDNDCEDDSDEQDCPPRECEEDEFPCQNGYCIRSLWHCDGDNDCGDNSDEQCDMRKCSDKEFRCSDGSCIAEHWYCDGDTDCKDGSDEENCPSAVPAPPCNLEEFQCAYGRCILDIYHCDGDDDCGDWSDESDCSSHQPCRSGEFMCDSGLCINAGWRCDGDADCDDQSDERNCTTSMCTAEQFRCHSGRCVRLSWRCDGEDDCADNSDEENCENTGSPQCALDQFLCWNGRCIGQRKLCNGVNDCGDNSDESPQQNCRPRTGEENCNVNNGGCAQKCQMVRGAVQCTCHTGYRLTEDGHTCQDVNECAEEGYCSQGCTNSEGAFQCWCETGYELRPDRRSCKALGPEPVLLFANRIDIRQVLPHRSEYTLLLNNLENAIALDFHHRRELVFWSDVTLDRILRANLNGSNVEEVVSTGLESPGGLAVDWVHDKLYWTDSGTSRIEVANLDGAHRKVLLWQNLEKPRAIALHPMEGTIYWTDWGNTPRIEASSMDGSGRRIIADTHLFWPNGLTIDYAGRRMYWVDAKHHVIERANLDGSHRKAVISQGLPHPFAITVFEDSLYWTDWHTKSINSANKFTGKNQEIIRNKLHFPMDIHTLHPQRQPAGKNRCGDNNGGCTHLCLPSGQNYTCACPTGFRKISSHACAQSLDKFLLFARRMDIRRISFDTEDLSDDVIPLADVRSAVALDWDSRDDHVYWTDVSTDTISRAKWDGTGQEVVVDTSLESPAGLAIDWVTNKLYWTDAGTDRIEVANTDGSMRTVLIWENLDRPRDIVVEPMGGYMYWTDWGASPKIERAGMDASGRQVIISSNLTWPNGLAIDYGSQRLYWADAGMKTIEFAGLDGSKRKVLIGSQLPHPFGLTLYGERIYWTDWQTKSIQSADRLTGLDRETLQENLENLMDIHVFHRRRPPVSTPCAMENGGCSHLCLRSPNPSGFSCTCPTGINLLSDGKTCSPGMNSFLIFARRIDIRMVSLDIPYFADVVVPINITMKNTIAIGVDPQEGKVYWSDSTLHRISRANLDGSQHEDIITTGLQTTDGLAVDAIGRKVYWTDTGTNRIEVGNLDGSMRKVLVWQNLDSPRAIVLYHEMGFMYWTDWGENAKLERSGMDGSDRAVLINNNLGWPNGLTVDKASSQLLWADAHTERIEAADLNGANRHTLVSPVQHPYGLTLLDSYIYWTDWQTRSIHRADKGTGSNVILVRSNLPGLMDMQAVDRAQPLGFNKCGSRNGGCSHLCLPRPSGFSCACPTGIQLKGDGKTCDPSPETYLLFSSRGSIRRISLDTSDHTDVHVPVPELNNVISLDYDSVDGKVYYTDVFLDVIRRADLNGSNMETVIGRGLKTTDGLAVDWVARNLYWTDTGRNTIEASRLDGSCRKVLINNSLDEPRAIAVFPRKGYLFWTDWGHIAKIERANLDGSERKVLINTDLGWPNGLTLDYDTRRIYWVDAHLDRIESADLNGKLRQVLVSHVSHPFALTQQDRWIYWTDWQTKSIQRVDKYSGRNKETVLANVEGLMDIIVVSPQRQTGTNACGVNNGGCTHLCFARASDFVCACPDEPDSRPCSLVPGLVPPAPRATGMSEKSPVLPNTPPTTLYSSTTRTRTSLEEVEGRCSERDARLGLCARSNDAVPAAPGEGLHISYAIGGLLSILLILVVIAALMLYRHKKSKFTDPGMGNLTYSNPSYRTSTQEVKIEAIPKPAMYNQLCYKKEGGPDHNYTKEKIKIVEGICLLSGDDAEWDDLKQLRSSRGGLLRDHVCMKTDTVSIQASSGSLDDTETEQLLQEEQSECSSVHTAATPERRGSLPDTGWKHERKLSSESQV
UniProt Q6UXX9, residues 22-243: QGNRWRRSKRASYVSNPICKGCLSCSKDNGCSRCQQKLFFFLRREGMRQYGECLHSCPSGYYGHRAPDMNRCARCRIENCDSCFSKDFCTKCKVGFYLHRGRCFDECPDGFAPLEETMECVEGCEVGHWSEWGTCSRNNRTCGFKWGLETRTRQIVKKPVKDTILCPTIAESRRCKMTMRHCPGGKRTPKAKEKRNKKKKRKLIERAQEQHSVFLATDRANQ

Key:
LRP4-Flag (human) = LRP4-Flag (human) (UniProt O75096); experiment: co-IP; HEK293 cells transfected with a combination of LRP4-Flag, human full-length MuSK and human LGR5, 48 h; lysate immunoprecipitated with anti-Flag antibody on protein G Sepharose; Western blot (Fig. 3C)
[1] = target: Rspo2-myc alkaline phosphatase (AP) (UniProt Q6UXX9); experiment: co-IP; HEK293 cells transfected with human LGR5 and Rspo2-mycAP or MuSKect-mycAP, no LRP4 co-expressed, 48 h; lysate (50 mM HEPES pH 7.0, 150 mM NaCl, 1% Triton X-100) immunoprecipitated with anti-myc antibody on protein G Sepharose; Western blot for Lgr5 (Fig. 3B)

B1: Leucine-rich repeat-containing G-protein coupled receptor 5 (pcDNA3.1-human LGR5) (receptor, UniProt O75473 22-907)
chain: GSSPRSGVLLRGCPTHCHCEPDGRMLLRVDCSDLGLSELPSNLSVFTSYLDLSMNNISQLLPNPLPSLRFLEELRLAGNALTYIPKGAFTGLYSLKVLMLQNNQLRHVPTEALQNLRSLQSLRLDANHISYVPPSCFSGLHSLRHLWLDDNALTEIPVQAFRSLSALQAMTLALNKIHHIPDYAFGNLSSLVVLHLHNNRIHSLGKKCFDGLHSLETLDLNYNNLDEFPTAIRTLSNLKELGFHSNNIRSIPEKAFVGNPSLITIHFYDNPIQFVGRSAFQHLPELRTLTLNGASQITEFPDLTGTANLESLTLTGAQISSLPQTVCNQLPNLQVLDLSYNLLEDLPSFSVCQKLQKIDLRHNEIYEIKVDTFQQLLSLRSLNLAWNKIAIIHPNAFSTLPSLIKLDLSSNLLSSFPITGLHGLTHLKLTGNHALQSLISSENFPELKVIEMPYAYQCCAFGVCENAYKISNQWNKGDNSSMDDLHKKDAGMFQAQDERDLEDFLLDFEEDLKALHSVQCSPSPGPFKPCEHLLDGWLIRIGVWTIAVLALTCNALVTSTVFRSPLYISPIKLLIGVIAAVNMLTGVSSAVLAGVDAFTFGSFARHGAWWENGVGCHVIGFLSIFASESSVFLLTLAALERGFSVKYSAKFETKAPFSSLKVIILLCALLALTMAAVPLLGGSKYGASPLCLPLPFGEPSTMGYMVALILLNSLCFLMMTIAYTKLYCNLDKGDLENIWDCSMVKHIALLLFTNCILNCPVAFLSFSSLINLTFISPEVIKFILLVVVPLPACLNPLLYILFNPHFKEDLVSLRKQTYVWTRSKHPSLMSINSDDVEKQSCDSTQALVTFTSSSITYDLPPSSVPSPAYPVTESCHLSSVAFVPCL
In the case of B1, the binding (LRP4-Flag (human)) is reported as “binds” and the binding [1] is reported as “binds”.
